Test results taken from PubChem BioAssay AID2685 (National Center for Advancing Translational Sciences (NCATS), 2010).
Some of the results follow. These are further read-outs of the screen, such as a control signal, another cell line or another target. No call is given for them. Compounds called inactive in the main read-out are mostly missing here. Potencies come from curve fits of mixed quality, noted in brackets.

Assay: qHTS Assay for Lipid Storage Modulators in Drosophila S3 Cells;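 as to cell number change: cells counted by Cell Tracker Red CMTPX staining in the red channel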
Conditions: BODIPY lipid droplet fluorescence, 18-24 h; for cell number change: measured here: cell count max response, cells fed with added oleic acid
Summary of the method: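 Drosophila S3 cells got compounds at several concentrations plus oleic acid (400 uM solution). Laser-scanning cytometry with 488 nm excitation read lipid droplets at 500-530 nm and cells at 575-640 nm. Percent activity was relative to 20 uM Triacsin C.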

[1] = measured here: cell number channel AC50, cells fed with added oleic acid
[2] = measured here: lipid fluorescence (Fed channel) AC50, cells fed with added oleic acid

Row | Structure (SMILES) | cell number change | AC50 [1] | AC50 [2]
1 | Cc1cc(C)c(C)c(Oc2ncnc(N)c2[N+](=O)[O-])c1 | -2.33% | 7.31 µM [falling, partial curve] | –
2 | COC(=O)[C@]1(Cc2ccccc2)N[C@H](c2ccc(-c3ccc4c(c3)OCO4)cc2)[C@@H]2C(=O)N(C)C(=O)[C@@H]21 | -20.5% | 0.58 µM [falling, full curve, poor fit] | 0.0326 µM [falling, full curve]
3 | CCc1c(C)nc2c(-c3ccccc3)c[nH]n2c1=O | -9.94% | – | 29.1 µM [rising, single point]
4 | COc1ccccc1C(C(=O)NCc1ccccc1)N(C(=O)c1csnn1)C1CC1 (stereo not drawn) | 22.5% | – | –
5 | Cc1cc(C(=O)C(C)OC(=O)c2cnccn2)c(C)n1-c1ccccc1 (stereo not drawn) | -54.1% | 16.4 µM [falling, single point] | 29.1 µM [falling, single point]
6 | COc1ccc(/C=C/C(=O)Nc2ccccc2C(=O)N2CCCC2)cc1 | 30.5% | 18.4 µM [rising, single point] | 18.4 µM [rising, single point]
7 | COC(=O)CN(c1cc(OC)ccc1OC)S(=O)(=O)c1ccc(OC)c(OC)c1 | -13.7% | – | 6.51 µM [rising, single point]
8 | COc1ccc(CN2C(=O)c3cccnc3C2=O)cc1S(=O)(=O)N(C)Cc1ccco1 | 26.3% | – | –
9 | CCCCN(C)/C=N/c1c(C#N)cnn1-c1ccc(C)cc1 | -30% | – | 29.1 µM [falling, single point]
10 | Nc1c(NCc2ccccc2)c(=O)c1=O | – | 1.84 µM [falling, partial curve] | –
11 | Cc1ccc(-n2nc3c(=O)n(CC(=O)NCc4cccs4)nc(C)c3c2C)cc1 | -11.8% | – | 29.1 µM [falling, single point]
12 | O=C(Nc1ccc(Cl)cc1)c1cc(S(=O)(=O)Nc2ccccn2)ccc1Cl | 12.5% | – | –
13 | COc1ccc(N2CCN(C(=O)COC(=O)c3ccc(-n4nc(C)cc4C)cc3)CC2)cc1 | -3.88% | – | 2.06 µM [falling, partial curve]
14 | Cc1ccc(/C=C/C(=O)c2ccc([N+](=O)[O-])o2)cc1 | -88.9% | 11.6 µM [falling, partial curve] | –
15 | N/C(=N\OC(=O)c1cc(Cl)ccc1Cl)c1cccnc1 | 113% | 29.1 µM [rising, single point] | –
16 | O=C(NNC(=S)NCc1ccccc1)c1ccc(Br)o1 | 15.6% | – | –
17 | Cc1ccc(C(=O)N2CCCCCC2)cc1S(=O)(=O)Nc1ccccc1 | -11.3% | – | 32.6 µM [falling, single point]
18 | Clc1ccc(OCCn2cnc3ccccc32)c(Cl)c1 | -19.8% | – | 29.1 µM [falling, single point]
19 | CC(C)c1onc(C(=O)N2CCC(C(N)=O)CC2)c1[N+](=O)[O-] | 6.54% | – | 2.59 µM [falling, partial curve]
20 | CCC(=O)NC(c1ccc(Cl)cc1Cl)c1ccc2cccnc2c1O (stereo not drawn) | -48.4% | 8.2 µM [falling, partial curve] | 29.1 µM [falling, single point]

Just AC50 [1] and AC50 [2] (two entries from above):
Row | Structure (SMILES) | AC50 [1] | AC50 [2]
3 | CCc1c(C)nc2c(-c3ccccc3)c[nH]n2c1=O | – | 29.1 µM [rising, single point]
6 | COc1ccc(/C=C/C(=O)Nc2ccccc2C(=O)N2CCCC2)cc1 | 18.4 µM [rising, single point] | 18.4 µM [rising, single point]

Next part:

Row | Structure (SMILES) | cell number change | AC50 [1] | AC50 [2]
21 | CCCSc1nnc(CN2CCOCC2)n1C | -104% | 29.1 µM [falling, single point] | 29.1 µM [falling, single point]
22 | CC1CCN(c2ccc3nnc(CCC(=O)N4CCCCC4)n3n2)CC1 | -11.1% | – | 29.1 µM [rising, single point]
23 | CCCn1c(=N)n(CC(=O)c2ccc([N+](=O)[O-])cc2)c2ccccc21 | 30.5% | – | –
24 | O=[N+]([O-])c1nn(-c2ccc3c(c2)OCCO3)n(O)c1=NC1CCCCCC1 | -61.2% | 18.4 µM [falling, partial curve] | 16.4 µM [falling, partial curve]
25 | CCCCCCCC(=O)Nc1cc(C(=O)NCc2ccc(C)cc2)ccc1N1CCC2(CC1)CC(c1ccccc1)=NO2 | 30.2% | 10.3 µM [rising, partial curve, poor fit] | –
26 | c1nc(NCC2(N3CCOCC3)CCCCC2)c2ccsc2n1 | -26.4% | – | 7.31 µM [falling, partial curve]
27 | CC(=O)NC1C(c2nc3ccccc3s2)=C(c2ccccc2)C(=O)N1c1ccc(C)cc1 (stereo not drawn) | – | 0.58 µM [rising, full curve] | –
28 | COc1ccc(N2CC(C(=O)Nc3ncccc3C)CC2=O)cc1 (stereo not drawn) | 7.53% | – | 0.103 µM [rising, single point]
29 | N#Cc1ccc(OCC(=O)NCC2(N3CCCCC3)CCCCC2)cc1 | 47.9% | – | –
30 | CCOc1ccc2ccccc2c1C(=O)NCC(c1ccc(N(C)C)cc1)N(C)C (stereo not drawn) | 15.3% | – | 18.4 µM [rising, partial curve]
31 | CCN1C(=O)[C@@H]2[C@@H](c3ccc(-c4ccc(Cl)c(Cl)c4)c(OC)c3)N3CCCC[C@@]3(C(=O)OC)[C@@H]2C1=O | -15.4% | – | 9.2 µM [falling, partial curve]
32 | O=C1CCc2ccc(NS(=O)(=O)c3ccc(F)cc3)cc2N1 | -15.7% | – | 5.8 µM [falling, full curve]
33 | O=C(Nc1cccc(S(=O)(=O)N2CCOCC2)c1)C1CC(=O)N(c2ccc3c(c2)OCCO3)C1 (stereo not drawn) | -8.77% | – | 0.82 µM [falling, single point]
34 | Cc1cccc(NC(=O)/C=C/c2ccc([N+](=O)[O-])s2)c1 | – | – | 11.6 µM [falling, partial curve]
35 | O=C(CN1C(=O)NC2(CCCCCCC2)C1=O)N1CCOCC1 | 6.66% | – | –
36 | COc1ccc(C2C(C#N)=C(N)N(c3ccccc3C#N)C3=C2C(=O)CCC3)cc1CN1CCCC1 (stereo not drawn) | 42.1% | 4.11 µM [rising, full curve, poor fit] | 0.82 µM [falling, single point]
37 | Cn1cccc1C(C(=O)NC1CCCCC1)N(C(=O)Cc1cccs1)c1ccc2c(c1)OCO2 (stereo not drawn) | -32.9% | 32.6 µM [falling, single point] | –
38 | COc1ccccc1NC(=O)CC1CCCC1 | 0.417% | – | –
39 | CCCn1c2ccccc2c2cnn(CC(=O)N(CC)CC)c(=O)c21 | 6.38% | – | –
